Experimental data: patent publication US20250352608A1, “POLYPEPTIDES HAVING ANTI-INFLAMMATORY EFFECTS AND USES THEREOF” (OneSkin, Inc., priority 2020, published 2025)
Entries after “also recorded” stand apart in the source; their conditions may differ. Not every detail of the peptide structures is certain; ends, links or a residue may be inferred. Ends that are not written are not given here.

Legend:
[1] = tested on: 3D skin equivalent (elder donors); assay: Relative mRNA expression in 3D skin equivalents versus Retinoic Acid; format: cell-based, human; settings: 1p M peptide vs 20 μM Retinoic Acid
Protocol: 3D skin equivalent sections of samples built with cells from elder donors ([…]) were treated with 1p M Peptide 14 or Peptide 13, or 20 μM Retinoic Acid (RA) and assessed for the effect of the various treatments of various markers of senescence, aging, and health.
Data are presented as 2-ddCt normalized to GAPDH and untreated control. *p<0.05. Peptide 13 and Peptide 14-treated samples generally had similar relative mRNA expression levels for p16, BLIMP1, ZYG11B, IL-8, and Ki-67 in the epidermal layer, and for p16, MMP1, HAS2, IL-8, and Ki-67 in the dermal layer. Peptide 13 and Peptide 14-treated samples generally had lower relative mRNA expression levels than RA-treated samples for p16, BLIMP1, ZYG11B, IL-8, in the epidermal layer and for p16, MMP1, IL-8, and Ki-67 in the dermal layer. Peptide 13 and Peptide 14-treated samples generally had higher relative mRNA expression levels than RA-treated samples for Ki-67 in the epidermal layer and for HAS2 for the dermal layer. Peptide 13 and Peptide 14-treated samples had similar relative mRNA expression levels as RA-treated samples for ZIC1 and Ki-67 for dermal layer.

HGPS HDFs = assay: PP2A modulators and senescence markers; format: cell-based, human; settings: 12.5 μM Peptide 14 with 5 nM Okadaic Acid, 48 hours
Protocol: Since PP2A has not been explored for cellular senescence modulation, whether the treatment of HGPS HDFs with a PP2A inhibitor (Okadaic acid—OA) and activator (DT-061) would result in the modulation of cellular senescence markers was assessed. HGPS HDFs were treated with 5-7.5 nM Okadaic Acid or 7.5 μM DT-061 for 48 hs. Some cells were treated with both 5 nM Okadaic Acid and 12.5 μM Peptide 14 for 48 hours. The senescence level was determined by SA β-galactosidase staining and normalized to total cell number.

[2] = tested on: facial skin of human subjects; assay: Clinical study of topical application on the face; format: in vivo; settings: 0.01% formulation, compared to baseline
[3] = tested on: peripheral blood mononuclear cells (PBMCs); assay: PBMC mRNA of IFN-γ and IL-10 (RT-qPCR); format: cell-based, human
Protocol: The effect of Peptide 14 on T cell activation was assessed by treating PBMCs stimulated with phytohaemagglutinin (PHA) with Peptide 14. PHA usually can trigger lymphocyte activation and cell division. PBMCs that were untreated with PHA or Peptide 14 served as negative control of lymphocyte activation. In the phytohaemagglutinin group, the PBMCs were activated with 5 μg/mL of PHA for 5 days. In the Peptide 14 and PHA group, the PBMCs were activated with 5 μg/mL of PHA and treated with 3.12 μM of Peptide 14 for 5 days. In the Peptide 14 group, the PBMCs were treated with 3.12 μM of Peptide 14 for 5 days. In the rapamycin group, the PBMCs were treated with 100 nM of rapamycin, a well-known immunosuppressive drug for 5 days. In the rapamycin+PHA group, the PBMCs were activated with 5 μg/mL of PHA and treated with 100 nM of rapamycin for 5 days. […] IFN-γ is typically produced in lymphocytes stimulated by PHA and may be used as marker of PBMC stimulation level. IL-10 is an anti-inflammatory cytokine. The cells from each of the experimental groups were processed for total RNA isolation, reverse transcription of the RNA and RT-qPCR. Data is represented as relative expression normalized to ubiquitous gene expression and untreated PBMC negative control.

## ETAKHWLKGI [Peptide 14, ETAKHWLKGI]
[1]
  relative mRNA BLIMP1, epidermal layer, vs RA-treated samples: lower
  relative mRNA HAS2, dermal layer, vs RA-treated samples: higher
  relative mRNA IL-8, dermal layer, vs RA-treated samples: lower
  relative mRNA IL-8, epidermal layer, vs RA-treated samples: lower
  relative mRNA Ki-67, dermal layer, vs RA-treated samples: lower; also recorded: similar
  relative mRNA Ki-67, epidermal layer, vs RA-treated samples: higher
  relative mRNA MMP1, dermal layer, vs RA-treated samples: lower
  relative mRNA ZIC1 vs RA-treated samples: similar
  relative mRNA ZYG11B, epidermal layer, vs RA-treated samples: lower
  relative mRNA p16, dermal layer, vs RA-treated samples: lower
  relative mRNA p16, epidermal layer, vs RA-treated samples: lower
HGPS HDFs
  senescence induced by OA: rescuing the senescence induction effect of OA
[2]
  skin hydration (Comeometer) vs negative control side: higher level
[3]; single agent, 5 days (Peptide 14 3.12 μM; rapamycin 100 nM; PHA 5 μg/mL)
  relative expression level of IFN-γ vs negative control: increased slightly
[3]; with 5 μg/mL PHA, 5 days (Peptide 14 3.12 μM; rapamycin 100 nM)
  relative expression level of IFN-γ vs negative control: about 5 fold
